PubChem BioAssay AID686937 | Drosophila RNAi Screening Center – 2013
Assay: 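Genes in the fly needed for secretion of protein constitutively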 (primary screen). Cell system: Drosophila S2 cells expressing secreted horseradish peroxidase. Reagents: long dsRNA against Drosophila genes. Time to read-out: about 5.5 days (5 days dsRNA, then 12 h reporter induction). Treatment: reporter expression induced after 5 days of dsRNA, read 12 h later; inducer not stated. Detection: 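Chemiluminescent measurement of peroxidase in the medium 12 h after reporter induction, following 5 days of dsRNA, given as a z-score per plate; higher means more secretion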. Reading the numbers: z-score: higher = more reporter secreted into medium.
The deposit covers about 23,000 reagents; below is an unselected part of those that have a named target and a result. 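Reduced-secretion tags in replicate 1 do not always agree with the z-scores; no criterion for assigning the tags was given.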 The numbers tell different reagents against one gene apart. Names joined by + are all predicted targets of the reagent. Further read-outs or replicates are left out here. The record does not give: the amount of reagent.

gene knocked down	reagent	z-score, replicate 1	z-score, replicate 2
Det (Deterin)	1	-0.51	-0.51
CG11703	1	0.24	0.25
CG14212	1	0.29	0.3
CG42729	1	0.24	0.12
CG11417	1	-0.11	-0.24
Uch-L5 (Ubiquitin carboxy-terminal hydrolase L5)	1	0.33	0.22
Cht8 (Chitinase 8)	1	0.14	-0.07
ds (dachsous)	1	0.25	0.01
CG17768 + LSm-4	1	-1.08	-0.35
CG3526	1	0.36	0.53
CG3526	2	0.38	0.27
CG4854	1	0.29	-0.16
LysE (Lysozyme E)	1	0.16	0.45
CG8117	1	0.47	0.48
CG16898	1	0.23	0.12
ecd (ecdysoneless)	1	-0.47	-0.04
Ostgamma (Oligosaccharide transferase gamma subunit)	1	-0.09	0.06
CG6733	1	0.42	0.41
CG11307	1	0.39	0.37
Paris (Parkin Interacting Substrate)	1	0.17	0.22
MED23 + CG3700	1	0.14	0.17
MED23 + CG3700	2	0.29	0.46
CG30413	1	0.14	
Asx (Additional sex combs)	1	-1.25	-1.33
CG14659	1	-0.01	0.28
CG4020	1	0.24	0.18
CG31538	1	0.31	0.31
CG12817 + CG12420	1	0.07	0.36
SF2 (Splicing factor 2)	1	0.46	0.71
vsg (visgun)	1	0.43	-0.1
CG14411	1	0.32	0.4
CG14062	1	0.3	0.26
Gnpnat (Glucosamine-phosphate N-acetyltransferase)	1	0.27	0.52
Nnp-1	1	0.22	-0.31
CG8888	1	0.46	0.46
CG8888	2	0.63	0.73
Alg7	1	0.1	0.08
Alg7	2	-0.35	-0.22
RpL10Ab (Ribosomal protein L10Ab)	1	-5	-3.46
pita	1	-1.84	
pita	2	-2.21	-2.02
CG5770	1	0.27	0.43
Trf (TBP-related factor)	1	-0.03	0.24
CCHa2 (CCHamide-2)	1	0.56	0.35
Neos (Neosin)	1	0.74	0.69
aspr (asperous)	1	0.41	-0.07
aspr (asperous)	2	0.3	0.28
Or85f (Odorant receptor 85f)	1	0.4	0.73
Lipt1 (Lipoyltransferase 1)	1	-0.09	-0.11
CG6012	1	0.43	0.35
CysRS-m (Cysteinyl-tRNA synthetase, mitochondrial)	1	0.54	0.38
p38c (p38c MAP kinase)	1	-0.44	-0.27
CG6484	1	0.38	0.34
CG4752	1	0.35	0.5
CG6761	1	0.43	0.43
CG3301	1	0.37	0.41
